In publication doi:10.1101/2024.04.30.591961:
Where two headings read alike, the source gives them in different places. No constants are given. Whether binding was seen depends on the method and setting. For some of these results: In cells and extracts the contact can be indirect. Some entries that bind do so weakly or less than the wild type. For some of these results: Tags and fused reporters may be left off the sequences shown. Each block holds one substance with its values, some of them ahead of it.

Sequences of proteins named here, by UniProt entry; tags and fusion partners are left off. A change or cut given only in a name is not applied to a line headed by its entry. A line that says so, or that is headed by a name, gives the form on record, which may keep a tag or linker.
UniProt Q5I0X4: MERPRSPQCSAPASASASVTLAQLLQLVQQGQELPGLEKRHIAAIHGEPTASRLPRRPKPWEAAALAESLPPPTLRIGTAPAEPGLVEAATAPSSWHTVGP
HsPEX39 (ΔN,4A) (Q5I0X4, form named): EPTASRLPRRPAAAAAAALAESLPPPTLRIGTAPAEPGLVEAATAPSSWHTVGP
HsPEX39(4A) (Q5I0X4, form named): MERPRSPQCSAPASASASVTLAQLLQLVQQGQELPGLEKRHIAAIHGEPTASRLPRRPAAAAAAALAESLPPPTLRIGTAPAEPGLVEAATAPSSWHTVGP
UniProt Q92968: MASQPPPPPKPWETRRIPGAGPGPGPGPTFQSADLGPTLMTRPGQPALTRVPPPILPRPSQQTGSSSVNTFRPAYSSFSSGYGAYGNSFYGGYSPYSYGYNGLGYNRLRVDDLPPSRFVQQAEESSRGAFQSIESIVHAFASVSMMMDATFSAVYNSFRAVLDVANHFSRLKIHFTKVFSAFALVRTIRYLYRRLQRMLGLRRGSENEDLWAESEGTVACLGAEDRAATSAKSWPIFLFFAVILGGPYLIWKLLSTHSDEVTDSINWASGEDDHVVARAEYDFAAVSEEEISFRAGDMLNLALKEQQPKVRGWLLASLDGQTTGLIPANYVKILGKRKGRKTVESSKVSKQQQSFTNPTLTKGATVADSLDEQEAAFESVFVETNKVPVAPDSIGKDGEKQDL

Legend:
[1] = target: T1, radiolabeled H6PEX7 (human) (UniProt O00628); assay: native gel or EMSA
T1 sequence (chain, [^35S]methionine label): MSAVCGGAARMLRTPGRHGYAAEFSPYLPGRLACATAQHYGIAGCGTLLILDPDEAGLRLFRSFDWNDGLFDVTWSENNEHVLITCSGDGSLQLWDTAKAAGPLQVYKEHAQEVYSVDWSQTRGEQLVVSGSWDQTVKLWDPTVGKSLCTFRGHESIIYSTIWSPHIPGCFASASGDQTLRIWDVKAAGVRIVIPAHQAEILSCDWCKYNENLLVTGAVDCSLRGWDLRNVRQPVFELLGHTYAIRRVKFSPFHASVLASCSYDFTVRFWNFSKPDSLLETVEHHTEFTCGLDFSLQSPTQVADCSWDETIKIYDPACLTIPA

[2] = target: T1, radiolabeled H6PEX7 (human); assay: native gel or EMSA; remark: listed apart in the source
[3] = target: T1, radiolabeled H6PEX7 (human); assay: native gel or EMSA; remark: listed apart in the source
[4] = target: T1, radiolabeled H6PEX7 (human); assay: native gel or EMSA; remark: listed apart in the source
[5] = target: T1, radiolabeled H6PEX7 (human); assay: native gel or EMSA; remark: listed apart in the source
[6] = target: T1, radiolabeled H6PEX7 (human); assay: native gel or EMSA; remark: listed apart in the source
[7] = target: T1, radiolabeled H6PEX7 (human); assay: native gel or EMSA; remark: listed apart in the source
[8] = target: T1, radiolabeled H6PEX7 (human); assay: native gel or EMSA; remark: listed apart in the source
[9] = target: T2, PEX7-FLAG-HA (human) (UniProt O00628); assay: co-IP
T2 sequence: T1 sequence (chain, [^35S]methionine label)

[10] = target: HsPEX39-FLAG-HA (human) (UniProt Q5I0X4); assay: co-IP
[11] = target: T1, radiolabeled H6PEX7 (human); assay: native gel or EMSA; remark: listed apart in the source
[12] = target: T2, PEX7-FLAG-HA (human); assay: co-IP; remark: listed apart in the source
[13] = target: T1, radiolabeled H6PEX7 (human); assay: native gel or EMSA; remark: listed apart in the source
[14] = target: T1, radiolabeled H6PEX7 (human); assay: native gel or EMSA; remark: listed apart in the source

binding [1]: binds
binding [2]: binds
binding [3]: binds
binding [4]: binds
binding [5]: binds
binding [6]: binds
binding [7]: binds
Substance: GST-HsPEX39 (from UniProt Q5I0X4 1-101)

binding [8]: binds
binding [6]: binds
Substance: HsPEX39(ΔN) (from UniProt Q5I0X4 48-101) (domain or fragment)

binding [9]: binds
binding [10]: no binding
Substance: endogenous HsPEX13 (from UniProt Q92968 1-403)

binding [8]: no binding (tested: 4 ug in 20 uL)
binding [11]: no binding (tested: 4 ug in 20 uL)
binding [6]: no binding (tested: 4 ug in 20 uL)
Substance: HsPEX39 (ΔN,4A) (from UniProt Q5I0X4 48-101) (domain or fragment)

binding [8]: no binding (tested: 4 ug in 20 uL)
binding [11]: no binding (tested: 4 ug in 20 uL)
binding [6]: no binding (tested: 4 ug in 20 uL)
Substance: HsPEX39(4A) (from UniProt Q5I0X4 1-101)

binding [9]: binds
binding [12]: binds
Substance: endogenous HsPEX39 (from UniProt Q5I0X4 1-101)

binding [6]: binds
binding [13]: binds
binding [14]: binds
Substance: NtPEX13 (from UniProt Q92968 1-36) (domain or fragment)
